# Assay results taken from patent EP3409295A1 (priority 2016, dated 2017).
# Experiment: in vivo
# Conditions: female, SD, rat, iv, 5 mg/kg
smiles,measurement,setting,value
"CN1CC[C@]23c4c5ccc(O)c4O[C@H]2[C@@H](O)C=C[C@H]3[C@H]1C5 [Morphine, morphine]",concentration at 10 min,brain,2700 ng/g
same,concentration at 60 min,brain,223 ng/g
same,concentration at 180 min,brain,35 ng/g
same,concentration at 10 min,plasma,1100 ng/mL
same,concentration at 60 min,plasma,154 ng/mL
same,concentration at 180 min,plasma,10 ng/mL
